Data on one compound can be found in patent US10174380B2, “Methods for predicting multiple myeloma treatment response” (INSERM (INSTITUT NATIONAL DE LA SANTE ET DE LA RECHERCHE …, priority 2012, dated 2019).

The subject of assay [1] is 5 HMCLs with the highest HA Score. As to the kind of experiment: Growth assay for myeloma cells (Cell Titer Glo, intracellular ATP), HMCLs with high HA Score. The format is cell-based. Particulars: Homo sapiens, 96 h, 4 days culture, IL-6 2 ng/ml, read-out: median IC50. As to the method: (§1) Data are mean values plus or minus standard deviation (SD) of 5 experiments determined on sextuplet culture wells.
(§2) HMCLs were cultured for 4 days in 96-well flat-bottom microtiter plates in RPMI 1640 medium, 10% FCS, 2 ng/ml IL-6 culture medium (control), with graded Panobinostat (A), VPA […] or SAHA (C) concentrations. Data are mean values plus or minus standard deviation (SD) of 5 experiments determined on sextuplet culture wells.
(§3) Cell growth was evaluated by quantifying intracellular ATP amount with a Cell Titer Glo Luminescent Assay (Promega, Madison, Wis.) with a Centro LB 960 luminometer (Berthold Technologies, Bad Wildbad, Germany).
(§4) The inventors sought to determine whether HA Score could predict for the sensitivity of 10 HMCLs to HDAC inhibitor.
(§5) The inventors sought to determine whether HA Score could predict for the sensitivity of myeloma cells to clinical grade HDAC inhibitors {Neri, 2012 #3317}.
A general note: ATP-based viability assays read luminescence as a measure of living cells.

The subject of assay [2] is 5 HMCLs with low HA Score. As to the kind of experiment: Growth assay for myeloma cells (Cell Titer Glo, intracellular ATP), HMCLs with low HA Score. The format is cell-based. The conditions noted are these: Homo sapiens, 96 h, 4 days culture, IL-6 2 ng/ml, read-out: median IC50. As to the method:
as §1, §2, §3, §4, §5

Broadly, the IC50 is the midpoint of a concentration-inhibition curve. As for `O=C(CCCCCCC(=O)Nc1ccccc1)NO` [Vorinostat, vorinostat], the IC50 is 528 nM in assay [1] and 897 nM in assay [2].
